# Test results from the supplement of paper PMC12823440, “Inhibitors supercharge kinase turnover through native proteolytic circuits” (Nature, 2025).
# Sequences of proteins named here, by UniProt entry; tags and fusion partners are left off. A change or cut given only in a name is not applied to a line headed by its entry.
# UniProt P00519, whole entry: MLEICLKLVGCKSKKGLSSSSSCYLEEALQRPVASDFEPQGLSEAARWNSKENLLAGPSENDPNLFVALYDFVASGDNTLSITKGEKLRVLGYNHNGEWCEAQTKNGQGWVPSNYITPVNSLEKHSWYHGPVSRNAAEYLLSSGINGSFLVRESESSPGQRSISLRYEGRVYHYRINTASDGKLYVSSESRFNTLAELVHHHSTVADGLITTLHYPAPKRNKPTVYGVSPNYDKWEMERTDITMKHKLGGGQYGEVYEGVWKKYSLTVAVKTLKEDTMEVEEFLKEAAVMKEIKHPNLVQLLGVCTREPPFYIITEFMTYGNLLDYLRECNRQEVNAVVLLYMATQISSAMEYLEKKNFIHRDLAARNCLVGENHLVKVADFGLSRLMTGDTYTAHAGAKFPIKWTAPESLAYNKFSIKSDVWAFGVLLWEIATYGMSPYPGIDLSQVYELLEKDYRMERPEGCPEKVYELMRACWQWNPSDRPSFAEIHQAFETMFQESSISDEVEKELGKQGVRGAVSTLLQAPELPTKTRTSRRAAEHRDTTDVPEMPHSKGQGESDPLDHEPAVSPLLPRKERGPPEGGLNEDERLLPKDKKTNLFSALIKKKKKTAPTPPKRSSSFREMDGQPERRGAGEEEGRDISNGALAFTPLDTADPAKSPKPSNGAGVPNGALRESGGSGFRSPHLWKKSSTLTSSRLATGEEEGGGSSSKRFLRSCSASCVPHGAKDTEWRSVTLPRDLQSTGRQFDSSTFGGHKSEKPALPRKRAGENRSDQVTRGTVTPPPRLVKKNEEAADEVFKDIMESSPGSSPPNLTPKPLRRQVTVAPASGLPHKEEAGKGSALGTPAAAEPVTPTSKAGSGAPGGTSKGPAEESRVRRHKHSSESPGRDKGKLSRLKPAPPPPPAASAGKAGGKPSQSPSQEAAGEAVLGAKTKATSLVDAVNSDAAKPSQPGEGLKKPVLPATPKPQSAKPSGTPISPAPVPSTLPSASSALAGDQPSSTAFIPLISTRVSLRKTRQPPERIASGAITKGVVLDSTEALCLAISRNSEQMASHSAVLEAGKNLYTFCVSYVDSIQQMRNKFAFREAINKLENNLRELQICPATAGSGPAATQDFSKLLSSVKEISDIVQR
# UniProt Q9UM73: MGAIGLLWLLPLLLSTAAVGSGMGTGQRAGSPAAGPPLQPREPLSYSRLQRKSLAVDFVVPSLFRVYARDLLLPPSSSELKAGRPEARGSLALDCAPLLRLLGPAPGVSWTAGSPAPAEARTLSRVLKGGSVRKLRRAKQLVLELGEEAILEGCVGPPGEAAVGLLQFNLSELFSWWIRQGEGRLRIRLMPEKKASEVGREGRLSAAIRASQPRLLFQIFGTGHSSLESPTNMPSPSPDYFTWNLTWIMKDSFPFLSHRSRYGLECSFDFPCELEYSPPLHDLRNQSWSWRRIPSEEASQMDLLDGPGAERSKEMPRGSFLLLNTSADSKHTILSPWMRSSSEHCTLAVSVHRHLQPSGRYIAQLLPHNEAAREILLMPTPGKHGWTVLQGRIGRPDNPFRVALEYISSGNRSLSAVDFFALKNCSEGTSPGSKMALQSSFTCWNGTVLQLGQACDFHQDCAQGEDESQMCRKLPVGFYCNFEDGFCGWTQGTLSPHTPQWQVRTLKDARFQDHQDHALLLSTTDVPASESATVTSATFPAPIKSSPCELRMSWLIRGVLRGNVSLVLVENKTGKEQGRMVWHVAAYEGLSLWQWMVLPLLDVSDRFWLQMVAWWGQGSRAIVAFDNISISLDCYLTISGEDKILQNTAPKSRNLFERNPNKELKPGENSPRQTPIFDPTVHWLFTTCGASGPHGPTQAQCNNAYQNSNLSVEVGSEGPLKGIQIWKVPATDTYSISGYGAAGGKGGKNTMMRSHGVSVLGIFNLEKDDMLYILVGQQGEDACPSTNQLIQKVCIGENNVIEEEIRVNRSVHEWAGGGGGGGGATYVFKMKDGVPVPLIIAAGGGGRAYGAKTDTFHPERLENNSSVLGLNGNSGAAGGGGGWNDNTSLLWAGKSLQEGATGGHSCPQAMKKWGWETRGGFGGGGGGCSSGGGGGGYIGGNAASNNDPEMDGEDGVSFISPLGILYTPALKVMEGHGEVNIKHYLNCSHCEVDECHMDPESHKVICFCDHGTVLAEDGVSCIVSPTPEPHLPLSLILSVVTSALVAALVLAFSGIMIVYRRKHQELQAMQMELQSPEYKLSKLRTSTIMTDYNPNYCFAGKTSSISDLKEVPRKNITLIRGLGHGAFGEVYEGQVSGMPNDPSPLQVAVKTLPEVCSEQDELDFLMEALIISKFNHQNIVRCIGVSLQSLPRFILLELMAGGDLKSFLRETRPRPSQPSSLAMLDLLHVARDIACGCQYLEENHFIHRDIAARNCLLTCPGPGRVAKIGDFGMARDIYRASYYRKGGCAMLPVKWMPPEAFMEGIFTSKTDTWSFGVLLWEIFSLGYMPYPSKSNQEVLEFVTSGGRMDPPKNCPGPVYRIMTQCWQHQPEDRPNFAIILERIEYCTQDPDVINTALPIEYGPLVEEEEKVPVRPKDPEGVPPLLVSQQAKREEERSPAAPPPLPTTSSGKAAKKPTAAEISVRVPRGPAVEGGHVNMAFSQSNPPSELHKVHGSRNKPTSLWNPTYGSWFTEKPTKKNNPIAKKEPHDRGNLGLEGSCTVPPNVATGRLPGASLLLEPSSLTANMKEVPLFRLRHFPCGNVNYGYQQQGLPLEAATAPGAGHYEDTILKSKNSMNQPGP
# UniProt P10398: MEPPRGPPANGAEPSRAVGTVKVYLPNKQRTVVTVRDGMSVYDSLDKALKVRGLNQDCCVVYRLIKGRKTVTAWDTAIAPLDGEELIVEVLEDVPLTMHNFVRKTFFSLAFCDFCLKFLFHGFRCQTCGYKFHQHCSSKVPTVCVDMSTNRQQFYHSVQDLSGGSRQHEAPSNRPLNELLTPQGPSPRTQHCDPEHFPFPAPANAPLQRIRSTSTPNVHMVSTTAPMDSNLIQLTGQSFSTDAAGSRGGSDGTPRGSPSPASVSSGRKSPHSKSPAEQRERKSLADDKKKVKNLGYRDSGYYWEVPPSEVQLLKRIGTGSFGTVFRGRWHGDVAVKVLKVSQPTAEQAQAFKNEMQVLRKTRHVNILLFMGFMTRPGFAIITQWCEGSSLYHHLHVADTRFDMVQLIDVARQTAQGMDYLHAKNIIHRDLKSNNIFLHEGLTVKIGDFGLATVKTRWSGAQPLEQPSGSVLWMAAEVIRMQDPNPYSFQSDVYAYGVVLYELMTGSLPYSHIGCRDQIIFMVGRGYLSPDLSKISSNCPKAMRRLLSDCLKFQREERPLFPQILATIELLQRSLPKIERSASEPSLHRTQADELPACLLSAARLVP
# UniProt O14965: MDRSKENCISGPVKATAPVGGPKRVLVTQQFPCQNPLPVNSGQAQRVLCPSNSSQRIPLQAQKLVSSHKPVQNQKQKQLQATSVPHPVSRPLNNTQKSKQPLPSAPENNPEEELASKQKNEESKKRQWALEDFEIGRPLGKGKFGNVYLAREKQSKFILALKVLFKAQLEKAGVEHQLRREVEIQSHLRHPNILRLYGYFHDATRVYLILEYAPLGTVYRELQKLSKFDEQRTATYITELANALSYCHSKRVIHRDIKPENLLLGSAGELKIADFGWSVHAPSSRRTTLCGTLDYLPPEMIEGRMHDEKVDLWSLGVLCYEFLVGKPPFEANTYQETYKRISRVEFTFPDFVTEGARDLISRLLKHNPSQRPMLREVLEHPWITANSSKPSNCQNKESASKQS
# UniProt Q96GD4, whole entry: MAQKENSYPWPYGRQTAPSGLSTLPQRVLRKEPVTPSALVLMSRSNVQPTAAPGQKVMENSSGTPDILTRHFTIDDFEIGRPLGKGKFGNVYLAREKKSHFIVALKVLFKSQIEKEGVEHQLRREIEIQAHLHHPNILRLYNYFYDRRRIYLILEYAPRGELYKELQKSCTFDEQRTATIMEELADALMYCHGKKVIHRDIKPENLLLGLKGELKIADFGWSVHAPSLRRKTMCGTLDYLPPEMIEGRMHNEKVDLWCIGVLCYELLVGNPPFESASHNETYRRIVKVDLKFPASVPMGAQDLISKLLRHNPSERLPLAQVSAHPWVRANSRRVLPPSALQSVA
# UniProt P51813: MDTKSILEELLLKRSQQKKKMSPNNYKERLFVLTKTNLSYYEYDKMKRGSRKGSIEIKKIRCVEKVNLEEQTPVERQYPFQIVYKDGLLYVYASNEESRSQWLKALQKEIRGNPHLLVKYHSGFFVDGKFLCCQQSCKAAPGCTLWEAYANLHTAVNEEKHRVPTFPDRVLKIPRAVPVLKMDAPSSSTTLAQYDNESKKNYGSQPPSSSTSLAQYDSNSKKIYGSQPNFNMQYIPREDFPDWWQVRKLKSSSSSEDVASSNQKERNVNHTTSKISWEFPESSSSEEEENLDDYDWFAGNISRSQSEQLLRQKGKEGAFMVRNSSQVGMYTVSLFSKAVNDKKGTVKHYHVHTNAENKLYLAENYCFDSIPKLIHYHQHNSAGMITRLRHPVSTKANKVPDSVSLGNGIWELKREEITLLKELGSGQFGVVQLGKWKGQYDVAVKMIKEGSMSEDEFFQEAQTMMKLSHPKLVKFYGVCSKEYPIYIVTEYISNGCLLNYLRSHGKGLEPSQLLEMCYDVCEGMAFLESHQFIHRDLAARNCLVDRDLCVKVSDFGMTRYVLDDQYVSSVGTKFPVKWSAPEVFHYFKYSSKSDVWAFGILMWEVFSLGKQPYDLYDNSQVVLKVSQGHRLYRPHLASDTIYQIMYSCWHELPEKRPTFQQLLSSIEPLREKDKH
# UniProt P15056, whole entry, looked up: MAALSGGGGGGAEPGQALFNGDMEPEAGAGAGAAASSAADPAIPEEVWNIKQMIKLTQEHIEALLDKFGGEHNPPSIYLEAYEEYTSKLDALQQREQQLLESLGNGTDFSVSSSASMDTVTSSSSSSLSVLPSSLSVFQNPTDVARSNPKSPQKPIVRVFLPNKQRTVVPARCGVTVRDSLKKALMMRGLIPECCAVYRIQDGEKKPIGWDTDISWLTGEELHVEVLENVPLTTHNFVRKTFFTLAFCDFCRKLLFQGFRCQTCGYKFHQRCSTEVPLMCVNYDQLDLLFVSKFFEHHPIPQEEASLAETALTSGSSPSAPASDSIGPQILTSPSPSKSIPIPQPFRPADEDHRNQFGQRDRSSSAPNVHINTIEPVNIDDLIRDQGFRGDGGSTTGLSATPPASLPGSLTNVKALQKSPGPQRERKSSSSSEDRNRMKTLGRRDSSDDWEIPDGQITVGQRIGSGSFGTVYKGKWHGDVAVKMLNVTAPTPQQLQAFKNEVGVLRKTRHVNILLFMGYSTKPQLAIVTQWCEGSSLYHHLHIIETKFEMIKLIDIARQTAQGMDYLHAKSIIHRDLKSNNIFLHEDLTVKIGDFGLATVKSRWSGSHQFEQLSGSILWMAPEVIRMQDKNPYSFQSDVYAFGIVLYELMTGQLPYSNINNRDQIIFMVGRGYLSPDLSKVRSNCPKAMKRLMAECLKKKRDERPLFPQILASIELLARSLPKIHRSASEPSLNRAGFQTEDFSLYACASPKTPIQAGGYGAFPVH
# UniProt P11802: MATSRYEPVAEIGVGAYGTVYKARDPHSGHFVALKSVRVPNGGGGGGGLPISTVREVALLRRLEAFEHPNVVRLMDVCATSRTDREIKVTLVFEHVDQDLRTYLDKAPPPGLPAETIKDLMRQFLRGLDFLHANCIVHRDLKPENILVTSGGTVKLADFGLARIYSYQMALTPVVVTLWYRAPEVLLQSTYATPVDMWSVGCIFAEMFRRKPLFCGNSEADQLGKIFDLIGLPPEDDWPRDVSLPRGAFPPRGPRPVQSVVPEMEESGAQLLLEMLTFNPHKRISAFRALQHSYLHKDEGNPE
# UniProt Q00535, whole entry, looked up: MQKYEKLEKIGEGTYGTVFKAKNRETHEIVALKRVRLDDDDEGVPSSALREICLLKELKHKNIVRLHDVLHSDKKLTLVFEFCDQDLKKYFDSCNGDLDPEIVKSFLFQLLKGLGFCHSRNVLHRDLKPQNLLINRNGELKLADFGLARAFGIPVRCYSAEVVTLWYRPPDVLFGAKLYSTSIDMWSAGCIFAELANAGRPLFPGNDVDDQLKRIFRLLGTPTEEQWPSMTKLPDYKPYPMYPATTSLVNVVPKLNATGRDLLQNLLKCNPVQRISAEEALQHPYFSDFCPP
# UniProt Q00534, whole entry: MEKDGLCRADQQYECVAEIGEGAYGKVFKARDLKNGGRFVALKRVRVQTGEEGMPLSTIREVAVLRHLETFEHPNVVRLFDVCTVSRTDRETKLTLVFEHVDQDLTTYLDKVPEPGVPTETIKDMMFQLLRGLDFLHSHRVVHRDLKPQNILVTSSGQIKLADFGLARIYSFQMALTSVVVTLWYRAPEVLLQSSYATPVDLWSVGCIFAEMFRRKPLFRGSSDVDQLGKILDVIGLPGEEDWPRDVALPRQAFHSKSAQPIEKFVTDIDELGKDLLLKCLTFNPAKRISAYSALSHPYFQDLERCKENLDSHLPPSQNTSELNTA
# This is one part of the list. Hit calls seldom repeat between salt and free forms of one compound.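 Kinases were expressed as nanoluciferase fusions in K562 cells and luminescence was read every 4 h between 2 and 18 h as percent of control, DMSO set to 100% and a positive control to 0%. A time point counts as decreased when the signal drops significantly (2 sigma). The hit call is the authors' own, does not follow from the count of time points alone, and its rule is not shown.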
# Columns and labels:
# Assay in all cases: kinase-Nluc reporter destabilization hit call (1 = scored as downregulated) (binary); higher = compound decreases kinase abundance
# Details in all cases: K562; 2-18 h
# [1] = target: ABL1 (UniProt P00519)
# [2] = target: AKT1 (UniProt P31749)
# [3] = target: ALK (UniProt Q9UM73)
# [4] = target: ARAF (UniProt P10398)
# [5] = target: AURKA (UniProt O14965)
# [6] = target: AURKB (UniProt Q96GD4)
# [7] = target: AURKC (UniProt Q9UQB9)
# [8] = target: BLK (UniProt P51451)
# [9] = target: BMX (UniProt P51813)
# [10] = target: BRAF (UniProt P15056)
# [11] = tested on: BRAF_V600E
# [12] = target: BTK (UniProt Q06187)
# [13] = target: CAMK2A (UniProt Q9UQM7)
# [14] = target: CAMK2G (UniProt Q13555)
# [15] = target: CDK10 (UniProt Q15131)
# [16] = target: CDK2 (UniProt P24941)
# [17] = target: CDK3 (UniProt Q00526)
# [18] = target: CDK4 (UniProt P11802)
# [19] = target: CDK5 (UniProt Q00535)
# [20] = target: CDK6 (UniProt Q00534)
Structure (SMILES),kinase-Nluc reporter destabilization hit call [1],kinase-Nluc reporter destabilization hit call [2],kinase-Nluc reporter destabilization hit call [3],kinase-Nluc reporter destabilization hit call [4],kinase-Nluc reporter destabilization hit call [5],kinase-Nluc reporter destabilization hit call [6],kinase-Nluc reporter destabilization hit call [7],kinase-Nluc reporter destabilization hit call [8],kinase-Nluc reporter destabilization hit call [9],kinase-Nluc reporter destabilization hit call [10],kinase-Nluc reporter destabilization hit call [11],kinase-Nluc reporter destabilization hit call [12],kinase-Nluc reporter destabilization hit call [13],kinase-Nluc reporter destabilization hit call [14],kinase-Nluc reporter destabilization hit call [15],kinase-Nluc reporter destabilization hit call [16],kinase-Nluc reporter destabilization hit call [17],kinase-Nluc reporter destabilization hit call [18],kinase-Nluc reporter destabilization hit call [19],kinase-Nluc reporter destabilization hit call [20]
CC(C)(Oc1ccc(Cl)cc1)C(=O)Nc1ccc(OCc2ccc(C#N)cc2)cc1 [AMPK activator 4] (10 µM),inactive: 0,inactive: 0,inactive: 0,inactive: 0,inactive: 0,inactive: 0,inactive: 0,inactive: 0,inactive: 0,inactive: 0,inactive: 0,inactive: 0,inactive: 0,inactive: 0,inactive: 0,inactive: 0,inactive: 0,inactive: 0,inactive: 0,inactive: 0
Cc1nc2c(NCc3cccc(S(C)(=O)=O)c3)nccn2c1-c1ccc(O)c(F)c1 (10 µM),inactive: 0,inactive: 0,inactive: 0,inactive: 0,inactive: 0,inactive: 0,inactive: 0,inactive: 0,inactive: 0,inactive: 0,inactive: 0,inactive: 0,inactive: 0,inactive: 0,inactive: 0,inactive: 0,inactive: 0,inactive: 0,inactive: 0,inactive: 0
Cc1cnc(Cl)nc1-c1ccc(N(Cc2ccc(CNC(=O)C(F)F)cc2)C(=O)c2ccc(O)cc2O)cc1 (10 µM),inactive: 0,inactive: 0,inactive: 0,inactive: 0,inactive: 0,inactive: 0,inactive: 0,inactive: 0,inactive: 0,inactive: 0,inactive: 0,inactive: 0,inactive: 0,inactive: 0,inactive: 0,inactive: 0,inactive: 0,inactive: 0,inactive: 0,inactive: 0
N#Cc1cnc(Nc2cc(NC[C@H]3CNCCO3)c(C(F)(F)F)cn2)cn1 (10 µM),inactive: 0,inactive: 0,inactive: 0,inactive: 0,inactive: 0,inactive: 0,inactive: 0,inactive: 0,inactive: 0,inactive: 0,inactive: 0,inactive: 0,inactive: 0,inactive: 0,inactive: 0,inactive: 0,inactive: 0,inactive: 0,inactive: 0,inactive: 0
O=C(Nc1ccc(Cl)cc1)C1CN(C(=O)c2cccc(-c3ccco3)c2)CC(F)(F)C1 (stereo not given) (2.5 µM),inactive: 0,inactive: 0,inactive: 0,inactive: 0,inactive: 0,inactive: 0,inactive: 0,inactive: 0,inactive: 0,inactive: 0,inactive: 0,inactive: 0,inactive: 0,inactive: 0,inactive: 0,inactive: 0,inactive: 0,inactive: 0,inactive: 0,inactive: 0
O=C(O)/C=C(\CCc1ccc(Cl)cc1)c1ccccc1 (10 µM),inactive: 0,inactive: 0,inactive: 0,inactive: 0,inactive: 0,inactive: 0,inactive: 0,inactive: 0,inactive: 0,inactive: 0,inactive: 0,inactive: 0,inactive: 0,inactive: 0,inactive: 0,inactive: 0,inactive: 0,inactive: 0,inactive: 0,inactive: 0
COc1c(O)cc(O)c2c(=O)cc(-c3ccccc3)oc12 [Wogonin] (10 µM),inactive: 0,inactive: 0,inactive: 0,inactive: 0,inactive: 0,inactive: 0,inactive: 0,inactive: 0,inactive: 0,inactive: 0,inactive: 0,inactive: 0,inactive: 0,inactive: 0,inactive: 0,inactive: 0,inactive: 0,inactive: 0,inactive: 0,inactive: 0
O=C(Nc1ccc(F)cc1F)C(NC(=S)Nc1cc(C(F)(F)F)cc(C(F)(F)F)c1)c1ccccc1 (racemic) (2.5 µM),inactive: 0,inactive: 0,inactive: 0,inactive: 0,inactive: 0,active: 1,inactive: 0,inactive: 0,inactive: 0,inactive: 0,inactive: 0,inactive: 0,inactive: 0,inactive: 0,inactive: 0,inactive: 0,inactive: 0,inactive: 0,inactive: 0,inactive: 0
O=C(C#Cc1ccccc1)c1cccc([N+](=O)[O-])c1 (10 µM),inactive: 0,inactive: 0,inactive: 0,inactive: 0,inactive: 0,inactive: 0,inactive: 0,inactive: 0,inactive: 0,inactive: 0,inactive: 0,inactive: 0,inactive: 0,inactive: 0,inactive: 0,inactive: 0,inactive: 0,inactive: 0,inactive: 0,inactive: 0
S=C(NCc1ccc2c(c1)OCO2)N1CCN(c2ncnc3c2oc2ccccc23)CC1 [Amuvatinib] (2.5 µM),inactive: 0,inactive: 0,inactive: 0,inactive: 0,inactive: 0,inactive: 0,inactive: 0,inactive: 0,inactive: 0,inactive: 0,inactive: 0,inactive: 0,inactive: 0,inactive: 0,inactive: 0,inactive: 0,inactive: 0,inactive: 0,inactive: 0,inactive: 0
CN(C)CCn1cc2cc(NC(=O)c3cccc(C(F)(F)F)n3)c(C(C)(C)O)cc2n1 (10 µM),inactive: 0,inactive: 0,inactive: 0,inactive: 0,inactive: 0,inactive: 0,inactive: 0,inactive: 0,inactive: 0,inactive: 0,inactive: 0,inactive: 0,inactive: 0,inactive: 0,inactive: 0,inactive: 0,inactive: 0,inactive: 0,inactive: 0,inactive: 0
C[C@@H]1COC(Nc2ccc3ncnc(Nc4ccc(OCc5nccs5)c(Cl)c4)c3c2)=N1 [Varlitinib] (10 µM),inactive: 0,inactive: 0,inactive: 0,inactive: 0,inactive: 0,inactive: 0,inactive: 0,inactive: 0,inactive: 0,inactive: 0,inactive: 0,inactive: 0,inactive: 0,inactive: 0,inactive: 0,inactive: 0,inactive: 0,inactive: 0,inactive: 0,inactive: 0
Nc1[nH]nc2nnc(-c3c(-c4ccccc4)nn4ccccc34)cc12 (10 µM),inactive: 0,inactive: 0,inactive: 0,inactive: 0,inactive: 0,inactive: 0,inactive: 0,inactive: 0,inactive: 0,inactive: 0,inactive: 0,inactive: 0,inactive: 0,inactive: 0,inactive: 0,inactive: 0,inactive: 0,inactive: 0,inactive: 0,inactive: 0
CCCS(=O)(=O)N[C@H]1C[C@@H](N(C)c2ncnc3[nH]ccc23)C1 [Abrocitinib] (10 µM),inactive: 0,inactive: 0,inactive: 0,inactive: 0,inactive: 0,inactive: 0,inactive: 0,inactive: 0,inactive: 0,inactive: 0,inactive: 0,inactive: 0,inactive: 0,inactive: 0,inactive: 0,inactive: 0,inactive: 0,inactive: 0,inactive: 0,inactive: 0
COc1ccc(CN2CCC(c3ccc4nc(C(=O)N5CCN(Cc6ccc(C(F)(F)F)cc6)CC5)[nH]c4c3)CC2)cn1 (2.5 µM),inactive: 0,inactive: 0,inactive: 0,inactive: 0,inactive: 0,inactive: 0,inactive: 0,inactive: 0,inactive: 0,inactive: 0,inactive: 0,inactive: 0,inactive: 0,inactive: 0,inactive: 0,inactive: 0,inactive: 0,inactive: 0,inactive: 0,inactive: 0
O=C(CCl)c1c[nH]c2ccccc12 (2.5 µM),inactive: 0,inactive: 0,inactive: 0,inactive: 0,inactive: 0,inactive: 0,inactive: 0,inactive: 0,inactive: 0,inactive: 0,inactive: 0,inactive: 0,inactive: 0,inactive: 0,inactive: 0,inactive: 0,inactive: 0,inactive: 0,inactive: 0,inactive: 0
CC(ONC(=O)c1cc(C(F)(F)F)cc(C(F)(F)F)c1)C(=O)Nc1ccc(Cl)cc1 (stereo not given) (2.5 µM),inactive: 0,inactive: 0,inactive: 0,inactive: 0,inactive: 0,inactive: 0,inactive: 0,inactive: 0,active: 1,inactive: 0,inactive: 0,inactive: 0,inactive: 0,inactive: 0,inactive: 0,inactive: 0,inactive: 0,inactive: 0,inactive: 0,inactive: 0
COc1cc(N2CCC(N3CCN(C)CC3)CC2)ccc1Nc1ncnc(Nc2ccccc2S(=O)(=O)C(C)C)n1 (10 µM),inactive: 0,inactive: 0,inactive: 0,inactive: 0,inactive: 0,inactive: 0,inactive: 0,inactive: 0,inactive: 0,inactive: 0,inactive: 0,inactive: 0,inactive: 0,inactive: 0,inactive: 0,inactive: 0,inactive: 0,inactive: 0,inactive: 0,inactive: 0

# 3 compounds out of the list, ordered by length of the SMILES, descending.
Structure (SMILES),kinase-Nluc reporter destabilization hit call [1],kinase-Nluc reporter destabilization hit call [2],kinase-Nluc reporter destabilization hit call [3],kinase-Nluc reporter destabilization hit call [4],kinase-Nluc reporter destabilization hit call [5],kinase-Nluc reporter destabilization hit call [6],kinase-Nluc reporter destabilization hit call [7],kinase-Nluc reporter destabilization hit call [8],kinase-Nluc reporter destabilization hit call [9],kinase-Nluc reporter destabilization hit call [10],kinase-Nluc reporter destabilization hit call [11],kinase-Nluc reporter destabilization hit call [12],kinase-Nluc reporter destabilization hit call [13],kinase-Nluc reporter destabilization hit call [14],kinase-Nluc reporter destabilization hit call [15],kinase-Nluc reporter destabilization hit call [16],kinase-Nluc reporter destabilization hit call [17],kinase-Nluc reporter destabilization hit call [18],kinase-Nluc reporter destabilization hit call [19],kinase-Nluc reporter destabilization hit call [20]
COc1ccc(CN2CCC(c3ccc4nc(C(=O)N5CCN(Cc6ccc(C(F)(F)F)cc6)CC5)[nH]c4c3)CC2)cn1 (2.5 µM),inactive: 0,inactive: 0,inactive: 0,inactive: 0,inactive: 0,inactive: 0,inactive: 0,inactive: 0,inactive: 0,inactive: 0,inactive: 0,inactive: 0,inactive: 0,inactive: 0,inactive: 0,inactive: 0,inactive: 0,inactive: 0,inactive: 0,inactive: 0
O=C(Nc1ccc(Cl)cc1)C1CN(C(=O)c2cccc(-c3ccco3)c2)CC(F)(F)C1 (stereo not given) (2.5 µM),inactive: 0,inactive: 0,inactive: 0,inactive: 0,inactive: 0,inactive: 0,inactive: 0,inactive: 0,inactive: 0,inactive: 0,inactive: 0,inactive: 0,inactive: 0,inactive: 0,inactive: 0,inactive: 0,inactive: 0,inactive: 0,inactive: 0,inactive: 0
Cc1nc2c(NCc3cccc(S(C)(=O)=O)c3)nccn2c1-c1ccc(O)c(F)c1 (10 µM),inactive: 0,inactive: 0,inactive: 0,inactive: 0,inactive: 0,inactive: 0,inactive: 0,inactive: 0,inactive: 0,inactive: 0,inactive: 0,inactive: 0,inactive: 0,inactive: 0,inactive: 0,inactive: 0,inactive: 0,inactive: 0,inactive: 0,inactive: 0
